Where two headings read alike, the source gives them in different places. Structures were worked out from names or drawings and are uncertain.

Amino acid sequences for entries named in this document (tags omitted).
UniProt P27338, whole entry: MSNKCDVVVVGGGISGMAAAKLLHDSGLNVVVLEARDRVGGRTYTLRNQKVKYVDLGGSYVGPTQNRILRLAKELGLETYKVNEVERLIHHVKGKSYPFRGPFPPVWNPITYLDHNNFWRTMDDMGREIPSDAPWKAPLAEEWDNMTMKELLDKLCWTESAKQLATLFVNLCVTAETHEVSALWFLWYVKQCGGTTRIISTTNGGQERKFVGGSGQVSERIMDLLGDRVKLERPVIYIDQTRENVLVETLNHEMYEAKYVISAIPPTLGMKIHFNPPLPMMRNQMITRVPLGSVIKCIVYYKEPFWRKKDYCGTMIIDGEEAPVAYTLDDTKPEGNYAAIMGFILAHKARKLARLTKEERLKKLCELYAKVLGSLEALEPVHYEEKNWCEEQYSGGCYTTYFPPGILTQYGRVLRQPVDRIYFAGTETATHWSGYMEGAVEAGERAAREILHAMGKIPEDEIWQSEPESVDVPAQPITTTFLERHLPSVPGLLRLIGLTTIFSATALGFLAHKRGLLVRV

Assay [1] has as its target T1, MAO-B (Homo sapiens, UniProt P27338). In words: MAO-B inhibition of prior 3-phenylcoumarins (literature data). The class given is biochemical. The following applies: LiPE = pIC50 - QPlogPo/w, literature IC50.
The target of assay [2] is T1, MAO-B. The conditions noted are these: cited from earlier work; for pIC50: MAO-B; for IC50: read-out: MAO-B inhibition IC50.
Setting [3] is: from literature IC50 ref Viña et al., 2012a.
The mark [4] stands for this setting: prior 3-phenylcoumarins ref Viña et al., 2012a.
[5] abbreviates: from literature IC50 ref Santana et al., 2010.
The mark [6] stands for this setting: prior 3-phenylcoumarins ref Santana et al., 2010.

`COc1ccc(C(=O)O)c2ccccc12` returned a LiPE at MAO-B [1] of 4.79. At MAO-B [2] (setting [3]), the pIC50 – broadly, the negative decadic logarithm of the IC50, by convention in mol/L – is reported as 8.52. At MAO-B [2] (setting [4]), the IC50 – broadly, the concentration that inhibits the measured activity by half – is 3 nM.

For the compound `O=C(NCCN1CCOCC1)c1ccc(Cl)cc1`, the LiPE at MAO-B [1] is given as 4.53.

`COC(=O)c1ccc(O)c(O)c1C` yielded a LiPE on MAO-B [1] of 3.60. The pIC50 at MAO-B [2] (setting [3]) is 7.11. In addition, the IC50 on MAO-B [2] (setting [4]) is 78 nM.

On MAO-B [1], `COC(=O)[C@@H](O)c1ccccc1Cl` yielded a LiPE of 4.49. For the same compound, the pIC50 at MAO-B [2] (setting [5]) is 8.22. Moreover, at MAO-B [2] (setting [6]), the IC50 is 6 nM.

At MAO-B [1], `COc1c(O)cc2oc3cc(O)c(CC=C(C)C)c(O)c3c(=O)c2c1CC=C(C)C` displayed a LiPE of 2.88. Besides, the pIC50 on MAO-B [2] (setting [3]) was 6.82. The IC50 at MAO-B [2] (setting [4]) was 150 nM.

For `COC(=O)C1CCN(C(=O)OC(C)(C)C)C1` (stereo not shown), the LiPE on MAO-B [1] is reported as 5.00. In addition, the pIC50 on MAO-B [2] (setting [3]) is on record as 8.52. Besides, on MAO-B [2] (setting [4]), the IC50 was 3 nM.

At MAO-B [1], `COC(=O)CC(F)(F)F` registered a LiPE of 3.01. Further, the pIC50 on MAO-B [2] (setting [3]) is given as 6.68. On MAO-B [2] (setting [4]), the IC50 is 210 nM.

On MAO-B [1], `COC(=O)Nc1nc2ccc(C(=O)c3ccccc3)cc2[nH]1` gave a LiPE of 3.33. Besides, at MAO-B [2] (setting [5]), the pIC50 is recorded as 6.36. Moreover, the IC50 at MAO-B [2] (setting [6]) was 440 nM.

`COc1ccncc1[N+](=O)[O-]` showed a LiPE at MAO-B [1] of 3.74. Besides, the pIC50 at MAO-B [2] (setting [5]) is given as 6.68. Moreover, the IC50 on MAO-B [2] (setting [6]) was 210 nM.

Regarding `COC(=O)N1C(=O)C=CC1=O`, the LiPE at MAO-B [1] was 3.21. For the same compound, on MAO-B [2] (setting [5]), the pIC50 is on record as 6.32. Further, on MAO-B [2] (setting [6]), the IC50 was 480 nM.

On MAO-B [1], `O[C@@H](c1cc(C(F)(F)F)nc2c(C(F)(F)F)cccc12)[C@H]1CCCCN1` yielded a LiPE of 5.35. Also, on MAO-B [2] (setting [5]), the pIC50 is 9.00. For the same compound, the IC50 at MAO-B [2] (setting [6]) was 1 nM.

On MAO-B [1], `COc1ccc(CNc2nc(NCc3ccc(OC)cc3)c3ncn(C(C)C)c3n2)cc1` yielded a LiPE of 4.97. The pIC50 on MAO-B [2] (setting [5]) is reported as 8.70. In addition, the IC50 on MAO-B [2] (setting [6]) is 2 nM.

Compound `Cc1ccc(C[C@H](N)C(=O)O)cc1` had a LiPE at MAO-B [1] of 3.64. For the same compound, the pIC50 at MAO-B [2] (setting [3]) is 7.70. Further, the IC50 on MAO-B [2] (setting [4]) was 20 nM.

In the case of `Cn1ncc(C(=O)O)c1C(F)(F)F`, the LiPE at MAO-B [1] was 3.67. For the same compound, at MAO-B [2] (setting [3]), the pIC50 is given as 6.82. Also, at MAO-B [2] (setting [4]), the IC50 is 150 nM.

On MAO-B [1], `Cc1ccncc1[N+](=O)[O-]` gave a LiPE of 3.18. The pIC50 at MAO-B [2] (setting [5]) is 6.19. Also, the IC50 on MAO-B [2] (setting [6]) is 640 nM.

In turn, `CCCc1nn(C)c(C(N)=O)c1[N+](=O)[O-]` showed a LiPE on MAO-B [1] of 2.35. Further, the pIC50 at MAO-B [2] (setting [3]) was 5.97. For the same compound, the IC50 at MAO-B [2] (setting [4]) is 1060 nM.

(Values after article PMC5840146, “Structure-Activity Relationship Analysis of 3-Phenylcoumarin-Based Monoamine Oxidase B Inhibitors” (Frontiers in Chemistry, 2018).)
